From patent US20070189982A1
These are yes or no findings as the source states them, for the method shown. Binding seen in cells or lysates may run through a third protein. Some results given as binding are weak or reduced against the parent protein; the word gives no strength.

Target: PrtK (mature product of the prtK gene: PrtK48, PrtK39, PrtK15, PrtK44) (Porphyromonas gingivalis W50) (UniProt Q51817)
Experiment: co-purification by anion exchange, gel filtration and Arg-sepharose FPLC; SDS-PAGE with and without boiling; N-terminal sequencing

How did the binding turn out when “PrtR (mature product of the prtR gene: PrtR45, PrtR44, PrtR15, PrtR17, PrtR27) (from UniProt B2RM93 225-1703) (enzyme)” was run?
The binding was “binds”.
